From patent publication US20160046678A1 (ZYNGENIA, published 2016)
No constants are given. Whether binding was seen depends on the method and setting. Some binding calls cover weakened binding; strength is not graded here.

T1: TL1A (UniProt O95150)
T1 sequence (looked up): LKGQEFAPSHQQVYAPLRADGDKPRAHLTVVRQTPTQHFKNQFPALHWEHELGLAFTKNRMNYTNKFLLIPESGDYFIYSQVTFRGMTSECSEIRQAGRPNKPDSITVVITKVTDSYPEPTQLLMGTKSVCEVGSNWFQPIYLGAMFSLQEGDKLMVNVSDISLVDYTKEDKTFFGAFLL


What follows are binders tested against T1, TL1A (assay: peptide selection, Example 48).

Row | Binder | binding
1 | LQDVCWDLYYQKLYFCHQPM [TLA369] | binds
2 | STDVCWDRDHDKLMFCMSVR [TLA370] | binds
3 | DYAVCWDEAQGKLGWCIGMN [TLA371] | binds
4 | EYAVCWDDAQERLEWCKEPL [TLA372] | binds
5 | EYAVCWDESLEKLEWCTGLY [TLA373] | binds
6 | EYAVCWDEAQQRLIWCKGLY [TLA374] | binds
7 | EYALCWDQDKEILHWCVEFY [TLA375] | binds
8 | DNEVCWDGHVDRLVFCDSTM [TLA376] | binds
9 | NHDVCWDFHVDRLVYCDTPI [TLA377] | binds
10 | DYAVCWDAHMDHLVYCDAIA [TLA378] | binds
11 | DYEVCWDDYADRLVYCDLSL [TLA379] | binds
12 | SYEVCWDVHLDRLVYCNSVM [TLA380] | binds
13 | HYAVCWDFHLDRLVYCDRPS [TLA381] | binds
14 | DYEVCWDVIRGRLVYCETPM [TLA382] | binds
15 | AYEVCWDVNLDRLVYCEALM [TLA383] | binds
16 | GYEVCWDLKWDRLVFCDAPI [TLA384] | binds
17 | ALEVCWDFDVDHLVYCAAAL [TLA385] | binds
18 | EFEVCWDVHLDRLVYCHATM [TLA386] | binds
19 | QYDVCWDIYSDRLVYCDAHL [TLA388] | binds
20 | DYEVCWDLYLGRLYYCNAPI [TLA389] | binds
21 | EYEVCWDVNVDRLVYCNMPN [TLA390] | binds
22 | DYEVCWDVHFDRLVYCDTPL [TLA391] | binds
23 | DYEVCWSDDLDRLVYCQALI [TLA393] | binds
24 | DDAVCWDYHLDRLVFCETPM [TLA394] | binds
25 | DYDVCWDIHLDRLVYCDGPL [TLA395] | binds
26 | DYEVCWDVQLDRLVYCDGAM [TLA396] | binds
27 | DYEVCWDVHVERLVYCEDLI [TLA397] | binds
